# About 5,500 (1.4%) of roughly 400,000 compounds were called active. This list was built around the results that the source calls inconclusive (neither active nor inactive); the mix of calls is not that of the screen. Calls follow the shape of the dose curve; as a rule, active = well fitted cell-killing curve with a large enough effect; inconclusive = small, poorly fitted or top-dose-only effect, or effect the other way; inactive = flat fitted curve, though single readings scatter. Potencies of inconclusive entries are doubtful fits and often do not repeat.
# Assay: qHTS assay for MDR1-selective chemotherapeutics: Primary screen using the parental adenocarcinoma cell KB-3-1; also: nearly all actives have a fitted effect of over 60% in size
# Details: KB-3-1 viability, CellTiter-Glo ATP luminescence, 72 h; activity change, negative = cytotoxic: at 46.1 µM (top of the series)
# Summary of the method: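 Screening of KB-3-1 cells (DMEM, 10% FBS, phenol-red free) ran from lowest to highest compound concentration; after 72 h at 37 °C viability was read luminescently and curves fitted.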
# % is scaled to controls: 0 for no effect and ±100 for the full control effect; potency is read from the fitted curve at half-maximal effect.
SMILES,Potency,"activity change, negative = cytotoxic"
O=S(=O)(c1ccc(Br)cc1)c1nc(-c2ccco2)oc1SCc1ccccc1Cl,"inconclusive: 18.4 µM [cytotoxic, partial curve, poor fit]",
COc1ccc(Nc2nc(NC(C)(C)C)nc(N3CCOCC3)n2)c(OC)c1,"inconclusive: 25.9 µM [cytotoxic, single point]",
Cn1c(N)c(C(=O)CSc2nnc(-c3ccccc3F)n2N)c(=O)n(C)c1=O,inactive,
CCn1nnc2cc(C(=O)Nc3cccc(Cl)c3)ccc21,inactive,
Cc1nc2nc(NC(=O)c3cccc(Cl)c3)[nH]n2c(=O)c1Cc1ccccc1,inactive,
COc1ccc(-n2nc(C(=O)N(C)c3cccc(C(F)(F)F)c3)c3c4ccccc4n(C)c3c2=O)cc1,inactive,
COc1ccc(NC(=S)Nc2cc(C)[nH]n2)cc1Cl,inactive,
CCOC(=O)/C=c1\s/c(=C\c2c(OCC)ccc3ccccc23)c(=O)n1CC(=O)NCC1CCCO1 (configuration not stated),"inconclusive: 29.1 µM [cytotoxic, single point]",
C[C@@H]1CN([C@H](C)CO)C(=O)c2cc(Br)cnc2O[C@@H]1CN(C)C(=O)Nc1ccccc1,inactive,
CC(C)CCOc1ccc(C2=NNC(=O)CC2)cc1,"inconclusive: 14.6 µM [cytotoxic, partial curve]",
Cc1nc2ccccn2c1-c1csc(Nc2ccc(C(=O)O)cc2)n1,"inconclusive: 29.1 µM [cytotoxic, single point]",
CCOc1ccc(-n2c(-c3ccc(C)cc3)nc3c(cnn3-c3ccccc3)c2=O)cc1,inactive,
CCc1ccc2oc(C(=O)N3CCN(c4ccccc4OC)CC3)cc(=O)c2c1,active: 18.4 µM,
CC(C)C[C@H](NC(=O)c1nc[nH]c1C(=O)N[C@@H](CCCCNC(=O)OC(C)(C)C)C(=O)OC(C)(C)C)C(=O)OCc1ccccc1,"inconclusive: 29.1 µM [cytotoxic, single point]",
Cc1cc(C(=O)COC(=O)C(C)NC(N)=O)c(C)n1Cc1ccco1 (configuration not stated),"inconclusive: 23.1 µM [cytotoxic, single point]",
c1ccc(CNc2ncnc3scc(-c4cccs4)c23)nc1,"inconclusive: 20.6 µM [cytotoxic, partial curve]",
CCC(=O)c1ccc(N2CCN(C(=O)c3cc([N+](=O)[O-])ccc3F)CC2)c(F)c1,"inconclusive: 0.146 µM [cytotoxic, full curve]",
Cc1cc(C)c(Cn2c3ccccc3c3cnn(CC(=O)N4CCCCC4)c(=O)c32)c(C)c1,"inconclusive: 29.1 µM [cytotoxic, single point]",
CN(C(=O)c1ccc(Br)o1)C1CCS(=O)(=O)C1 (configuration not stated),"inconclusive: 0.461 µM [rising, full curve, poor fit]",
N#Cc1c(Nc2ccc(F)cc2)sc(C(=O)c2ccc(F)cc2)c1N,inactive,
CCCSc1nnc(CSc2ncccn2)n1C,inactive,
CC(=O)C1=C(c2ccc(Br)cc2)C(=O)c2ccccc2C1=O,"inconclusive: 23.1 µM [cytotoxic, single point]",
COc1cc(CN2CCC(C(=O)N3CCN(c4ccccc4F)CC3)CC2)cc(OC)c1OC,inactive,

# 3 entries out of the list, ordered by SMILES length, descending:
SMILES,Potency,"activity change, negative = cytotoxic"
CC(C)C[C@H](NC(=O)c1nc[nH]c1C(=O)N[C@@H](CCCCNC(=O)OC(C)(C)C)C(=O)OC(C)(C)C)C(=O)OCc1ccccc1,"inconclusive: 29.1 µM [cytotoxic, single point]",
N#Cc1c(Nc2ccc(F)cc2)sc(C(=O)c2ccc(F)cc2)c1N,inactive,
CC(C)CCOc1ccc(C2=NNC(=O)CC2)cc1,"inconclusive: 14.6 µM [cytotoxic, partial curve]",

# Additional structures follow.

SMILES,Potency,"activity change, negative = cytotoxic"
O=C(CSc1nnc(-c2ccc(O)cc2)n1Cc1ccco1)N1CCc2ccccc2C1,inactive,
O=C1CC(N2CCN(c3nc4ccccc4s3)CC2)C(=O)N1c1cccc(F)c1 (configuration not stated),active: 18.4 µM,
CC(=O)c1cccc(NS(=O)(=O)c2ccc3[nH]c4c(c3c2)CCCCCC4)c1,inactive,
COc1ccccc1NC(=O)C(=O)NCCC1CCCCN1S(=O)(=O)c1ccc(F)cc1 (configuration not stated),inactive,
CCC(O)CNC(=O)NC(=C(Cl)Cl)c1ccc(C)c(F)c1 (configuration not stated),"inconclusive: 29.1 µM [cytotoxic, single point]",
Cn1c2ccccc2c2c(C(=O)N3CCN(c4ccccc4)CC3)cn(C3CCCC3)c(=O)c21,"inconclusive: 29.1 µM [cytotoxic, single point]",
COc1ccccc1CNCC(=O)Nc1ccc(N2CCOCC2)cc1,"inconclusive: 16.4 µM [cytotoxic, single point]",
CC(C)(C)n1ncc2c(=O)n(CC(=O)NCc3ccco3)cnc21,"inconclusive: 23.1 µM [cytotoxic, single point]",
Cc1cccc(Cn2c(=O)n(-c3ccc(CC(=O)NCc4ccco4)cc3)c(=O)c3sccc32)c1,active: 23.1 µM,
Brc1ccc(C2C=Cc3ccccc32)cc1 (configuration not stated),"inconclusive: 14.6 µM [rising, partial curve, poor fit]",
CC(C)(C)NC(=O)C(c1ccc(O)cc1)N(C(=O)Cn1nnc(-c2ccc(F)cc2)n1)c1ccccc1F (configuration not stated),"inconclusive: 23.1 µM [cytotoxic, partial curve, poor fit]",
CCN(CC(=O)NCc1cccs1)C(=O)c1ccc(NS(=O)(=O)c2ccc(C(C)=O)cc2)cc1,inactive,
Cc1c(C(=O)OCc2nc3ccsc3c(=O)[nH]2)oc2ccccc12,inactive,
CC(C)[C@@H]1CC[C@@H](C)c2c(-c3ccccc3)n[nH]c21,"inconclusive: 29.1 µM [cytotoxic, single point]",
O=C(Cc1ccc(Cl)cc1)Nc1cccc(-c2nnc(-c3ccco3)o2)c1,"inconclusive: 0.461 µM [cytotoxic, full curve, poor fit]",
CC(C)COc1ccc(CN=C(N)N=C(N)N)cc1Cl,active: 13 µM,
CCn1c(NCCc2ccc(OC)c(OC)c2)nc2c1c(=O)n(C)c(=O)n2C,"inconclusive: 32.6 µM [cytotoxic, single point]",
CCN1CCN(C(=S)c2ccc(O)cc2)CC1,"inconclusive: 29.1 µM [rising, partial curve, poor fit]",
Cc1ccccc1-c1cc2nc(Nc3ccc(F)cc3)n(C)c(=O)c2s1,inactive,
CS(=O)(=O)c1nc(S(=O)(=O)c2ccc(Cl)cc2)c(NCCCn2ccnc2)s1,"inconclusive: 1.16 µM [cytotoxic, full curve, poor fit]",
Cc1cccc(COCC(Cc2ccccc2)N2CCN(C(=O)c3ccc(C(F)(F)F)cc3)CCC2=O)c1 (configuration not stated),active: 20.6 µM,
COc1ccccc1N1CCN(C(=O)c2cc3cc(Cl)ccc3[nH]2)CC1,"inconclusive: 29.1 µM [cytotoxic, single point]",
CN(C)c1ccc(/C=N\NC(=O)c2cccc3cc[nH]c23)cc1,"inconclusive: 29.1 µM [cytotoxic, single point]",

SMILES,Potency,"activity change, negative = cytotoxic"
COC(=O)c1ccc2c(c1)C(NC(C)=O)CCc1cc(OC)c(OC)c(OC)c1-2 (configuration not stated),active: 0.146 µM,
CC1(C(=O)NCc2ccccc2Br)CCN1Cc1ccc(-c2ccccn2)cc1 (configuration not stated),"inconclusive: 18.4 µM [cytotoxic, single point]",
COC(=O)c1c(C(=O)OC)c(-c2ccc(C)cc2)n2c1CCC2,inactive,
Cc1cc(C)cc(N(CC(=O)N2CC=C(c3ccccc3)CC2)S(=O)(=O)c2c(C)noc2C)c1,"inconclusive: 29.1 µM [cytotoxic, single point]",
O=C(NCc1ccc2c(c1)OCO2)c1ccc2c(=O)n(C3CCCC3)c(=O)[nH]c2c1,"inconclusive: 29.1 µM [cytotoxic, single point]",
Oc1ccc2ccccc2c1C=Nc1ccc(N2CCOCC2)cc1,"inconclusive: 13 µM [rising, partial curve, poor fit]",
C#CCOCCOCCOCCNc1nc(N2CCN(C(=O)CCCCCCCCCCNC(=O)[C@H](CCCCN)n3cc(C[C@@H](C)CC)nn3)CC2)nc(N2CCN(C(=O)CCCCCCCCCCNC(=O)[C@@H]([C@H](C)O)n3cc(C)nn3)CC2)n1,"inconclusive: 2.91 µM [cytotoxic, full curve, poor fit]",
CC1=C(C(N)=O)C(c2cccs2)NC(=O)N1 (configuration not stated),inactive,
Cc1nn(-c2ccccn2)c2c1C(=O)CC(C)(C)C2Br (configuration not stated),"inconclusive: 29.1 µM [cytotoxic, single point]",
Cc1cccc(NC(=O)c2cccc([N+](=O)[O-])c2O)c1C,"inconclusive: 18.4 µM [cytotoxic, partial curve, poor fit]",
COc1ccc(C)cc1NC(=O)CN(Cc1nnc(-c2ccc(Cl)cc2)o1)C1CCCC1,"inconclusive: 29.1 µM [cytotoxic, single point]",
Cc1onc(-c2ccccc2)c1C(=O)NNC(=S)NC(=O)c1ccc2c(c1)OCO2,inactive,
CCCc1ccc(-c2csc(NC(=O)C3=COCCO3)n2)cc1,"inconclusive: 29.1 µM [cytotoxic, single point]",
Cc1[nH]c(N=Nc2ccccc2)nc1N=Nc1ccccc1,active: 18.4 µM,
CCCCC[C@@H](C)N1C[C@H](COCc2ccccc2)Oc2cc(N3CCC[C@H]3C(N)=O)ccc2S1(=O)=O,"inconclusive: 29.1 µM [cytotoxic, single point]",
Cc1ccc(-c2csc3nc[nH]c(=S)c23)cc1,"inconclusive: 29.1 µM [cytotoxic, single point]",
Cc1ccc(S(=O)(=O)NC2=C(N3CCN(c4ccccc4F)CC3)C(=O)c3ccccc3C2=O)cc1,"inconclusive: 18.4 µM [cytotoxic, partial curve, poor fit]",
CN(C)CC1CCC/C(=C\c2ccc(OC(=O)/C=C/c3ccc(Cl)c(Cl)c3)cc2)C1=O (configuration not stated),"inconclusive: 29.1 µM [cytotoxic, single point]",
CCOc1cc(C(=O)Nc2cc(C)on2)cc(OCC)c1OCC,inactive,
COc1ccccc1NC(=O)COC(=O)/C=C/c1ccc2c(c1)OCO2,,inconclusive: 5.9%
COc1ccccc1C(=O)NCC(=O)N1CC=C(c2ccccc2)CC1,"inconclusive: 20.6 µM [cytotoxic, single point]",

# Reference: PubChem BioAssay AID1347075 (National Center for Advancing Translational Sciences (NCATS), 2019)
